Test results reported in paper PMC5433425 (PeerJ, 2017).
Further values from the same series stand in other lists.

Test system: E. coli AG100
Test: EtBr efflux by real-time fluorometry
Settings: 80 µM

Compound: CN(C)CCCN1c2ccccc2Sc2ccc(Cl)cc21 [CPZ, chlorpromazine]
- EtBr fluorescence (Channel Cycling A.530/585hp) (cycle 20, without glucose): 31.5156
- EtBr fluorescence (Channel Cycling A.530/585hp) (cycle 21, + glucose): 34.3645
- EtBr fluorescence (Channel Cycling A.530/585hp) (cycle 21, without glucose): 31.7951
- EtBr fluorescence (Channel Cycling A.530/585hp) (cycle 22, + glucose): 34.5828
- EtBr fluorescence (Channel Cycling A.530/585hp) (cycle 22, without glucose): 32.2136
- EtBr fluorescence (Channel Cycling A.530/585hp) (cycle 23, + glucose): 34.7857
- EtBr fluorescence (Channel Cycling A.530/585hp) (cycle 23, without glucose): 32.4861
- EtBr fluorescence (Channel Cycling A.530/585hp) (cycle 24, + glucose): 35.3156
- EtBr fluorescence (Channel Cycling A.530/585hp) (cycle 24, without glucose): 32.7551
- EtBr fluorescence (Channel Cycling A.530/585hp) (cycle 25, + glucose): 35.4931
- EtBr fluorescence (Channel Cycling A.530/585hp) (cycle 25, without glucose): 33.0906
- EtBr fluorescence (Channel Cycling A.530/585hp) (cycle 26, + glucose): 35.6971
- EtBr fluorescence (Channel Cycling A.530/585hp) (cycle 26, without glucose): 33.2642
- EtBr fluorescence (Channel Cycling A.530/585hp) (cycle 27, + glucose): 35.6663
- EtBr fluorescence (Channel Cycling A.530/585hp) (cycle 27, without glucose): 33.4015
- EtBr fluorescence (Channel Cycling A.530/585hp) (cycle 28, + glucose): 35.5241
- EtBr fluorescence (Channel Cycling A.530/585hp) (cycle 28, without glucose): 33.9385
- EtBr fluorescence (Channel Cycling A.530/585hp) (cycle 29, + glucose): 36.1118
- EtBr fluorescence (Channel Cycling A.530/585hp) (cycle 29, without glucose): 33.96
- EtBr fluorescence (Channel Cycling A.530/585hp) (cycle 30, + glucose): 36.4609
- EtBr fluorescence (Channel Cycling A.530/585hp) (cycle 30, without glucose): 34.4741
- EtBr fluorescence (Channel Cycling A.530/585hp) (cycle 31, + glucose): 36.437
- EtBr fluorescence (Channel Cycling A.530/585hp) (cycle 31, without glucose): 34.7454
- EtBr fluorescence (Channel Cycling A.530/585hp) (cycle 32, + glucose): 37.0162
- EtBr fluorescence (Channel Cycling A.530/585hp) (cycle 32, without glucose): 35.2459
- EtBr fluorescence (Channel Cycling A.530/585hp) (cycle 33, + glucose): 36.6013
- EtBr fluorescence (Channel Cycling A.530/585hp) (cycle 33, without glucose): 35.694
- EtBr fluorescence (Channel Cycling A.530/585hp) (cycle 34, + glucose): 36.6626
- EtBr fluorescence (Channel Cycling A.530/585hp) (cycle 34, without glucose): 35.5648
- EtBr fluorescence (Channel Cycling A.530/585hp) (cycle 35, + glucose): 37.2483
- EtBr fluorescence (Channel Cycling A.530/585hp) (cycle 35, without glucose): 35.7608
- EtBr fluorescence (Channel Cycling A.530/585hp) (cycle 36, + glucose): 37.1295
- EtBr fluorescence (Channel Cycling A.530/585hp) (cycle 36, without glucose): 36.2644
- EtBr fluorescence (Channel Cycling A.530/585hp) (cycle 37, + glucose): 37.0059
- EtBr fluorescence (Channel Cycling A.530/585hp) (cycle 37, without glucose): 36.4583
- EtBr fluorescence (Channel Cycling A.530/585hp) (cycle 38, + glucose): 36.7797
- EtBr fluorescence (Channel Cycling A.530/585hp) (cycle 38, without glucose): 37.0039
- EtBr fluorescence (Channel Cycling A.530/585hp) (cycle 39, + glucose): 37.423
- EtBr fluorescence (Channel Cycling A.530/585hp) (cycle 39, without glucose): 37.2414
- EtBr fluorescence (Channel Cycling A.530/585hp) (cycle 40, + glucose): 36.9377
- EtBr fluorescence (Channel Cycling A.530/585hp) (cycle 40, without glucose): 37.3825
- EtBr fluorescence (Channel Cycling A.530/585hp) (cycle 41, + glucose): 37.4729
- EtBr fluorescence (Channel Cycling A.530/585hp) (cycle 41, without glucose): 37.9067
- EtBr fluorescence (Channel Cycling A.530/585hp) (cycle 42, + glucose): 37.6339
- EtBr fluorescence (Channel Cycling A.530/585hp) (cycle 42, without glucose): 38.1996
- EtBr fluorescence (Channel Cycling A.530/585hp) (cycle 43, + glucose): 37.9166
- EtBr fluorescence (Channel Cycling A.530/585hp) (cycle 43, without glucose): 39.3026
- EtBr fluorescence (Channel Cycling A.530/585hp) (cycle 44, + glucose): 38.1566
- EtBr fluorescence (Channel Cycling A.530/585hp) (cycle 44, without glucose): 39.0707
- EtBr fluorescence (Channel Cycling A.530/585hp) (cycle 45, + glucose): 37.8682
- EtBr fluorescence (Channel Cycling A.530/585hp) (cycle 45, without glucose): 39.652
- EtBr fluorescence (Channel Cycling A.530/585hp) (cycle 46, + glucose): 38.1527
- EtBr fluorescence (Channel Cycling A.530/585hp) (cycle 46, without glucose): 39.8398
- EtBr fluorescence (Channel Cycling A.530/585hp) (cycle 47, + glucose): 38.1024
- EtBr fluorescence (Channel Cycling A.530/585hp) (cycle 47, without glucose): 39.9177
- EtBr fluorescence (Channel Cycling A.530/585hp) (cycle 48, + glucose): 38.2927
- EtBr fluorescence (Channel Cycling A.530/585hp) (cycle 48, without glucose): 40.7272
- EtBr fluorescence (Channel Cycling A.530/585hp) (cycle 49, + glucose): 38.1144
- EtBr fluorescence (Channel Cycling A.530/585hp) (cycle 49, without glucose): 41.1866
- EtBr fluorescence (Channel Cycling A.530/585hp) (cycle 50, + glucose): 38.0575
- EtBr fluorescence (Channel Cycling A.530/585hp) (cycle 50, without glucose): 41.1014
- EtBr fluorescence (Channel Cycling A.530/585hp) (cycle 51, + glucose): 38.3115
- EtBr fluorescence (Channel Cycling A.530/585hp) (cycle 51, without glucose): 41.3934
- EtBr fluorescence (Channel Cycling A.530/585hp) (cycle 52, + glucose): 38.3484
- EtBr fluorescence (Channel Cycling A.530/585hp) (cycle 52, without glucose): 42.2452
- EtBr fluorescence (Channel Cycling A.530/585hp) (cycle 53, + glucose): 38.0995
- EtBr fluorescence (Channel Cycling A.530/585hp) (cycle 53, without glucose): 42.5637
- EtBr fluorescence (Channel Cycling A.530/585hp) (cycle 54, + glucose): 38.0306
- EtBr fluorescence (Channel Cycling A.530/585hp) (cycle 54, without glucose): 42.9741
- EtBr fluorescence (Channel Cycling A.530/585hp) (cycle 55, + glucose): 38.6248
- EtBr fluorescence (Channel Cycling A.530/585hp) (cycle 55, without glucose): 43.3288
- EtBr fluorescence (Channel Cycling A.530/585hp) (cycle 56, + glucose): 38.4331
- EtBr fluorescence (Channel Cycling A.530/585hp) (cycle 56, without glucose): 43.4008
- EtBr fluorescence (Channel Cycling A.530/585hp) (cycle 57, + glucose): 38.2885
- EtBr fluorescence (Channel Cycling A.530/585hp) (cycle 57, without glucose): 43.717
- EtBr fluorescence (Channel Cycling A.530/585hp) (cycle 58, + glucose): 38.3682
- EtBr fluorescence (Channel Cycling A.530/585hp) (cycle 58, without glucose): 44.2229
- EtBr fluorescence (Channel Cycling A.530/585hp) (cycle 59, + glucose): 38.1533
- EtBr fluorescence (Channel Cycling A.530/585hp) (cycle 59, without glucose): 44.7748
- EtBr fluorescence (Channel Cycling A.530/585hp) (cycle 60, + glucose): 37.8112
- EtBr fluorescence (Channel Cycling A.530/585hp) (cycle 60, without glucose): 45.3609
- EtBr fluorescence (Channel Cycling A.530/585hp) (cycle 61, + glucose): 37.7385
- EtBr fluorescence (Channel Cycling A.530/585hp) (cycle 61, without glucose): 45.87
